PubChem BioAssay AID652272 | Drosophila RNAi Screening Center, 2013
Purpose: 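Genes whose knock-down decreases or increases Hedgehog reporter output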 (primary screen). System: Drosophila clone 8 (Cl8) cells. Knock-down reagent: long dsRNA against Drosophila genes. Read-out: 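Firefly light from a Hedgehog-responsive ptc promoter reporter and Renilla reference light, both read on a plate reader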. Reading the numbers: firefly Hh reporter signal: higher = more ptc reporter light; Renilla reference signal: higher = more Renilla control light. Rule for the call: 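Called a hit if the two-replicate mean z-score lies below -2 or above +3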. Calls: active = hit: reporter lowered or raised; inactive = not a hit.
The deposit covers about 21,000 reagents; below is an unselected part of those with a known target gene and a result. Over the whole deposit, 503 (2.4%) are marked active. 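Raw plate light values, not normalised; calls rest on replicate z-scores that were not deposited; hits include reporter decreases as well as increases.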 Names joined by + are all predicted targets of the reagent. No sequences are given here. The record does not give: the amount of reagent, the time to read-out.

Spn55B (Serpin 55B) [DRSC07694]
- firefly Hh reporter signal, replicate 1: 99273
- firefly Hh reporter signal, replicate 2: 7.57e5
- firefly Hh reporter signal, replicate 3: 48177
- Renilla reference signal, replicate 1: 3664
- Renilla reference signal, replicate 2: 45771
- Call: inactive

fid (fire dancer) [DRSC14885]
- firefly Hh reporter signal, replicate 1: 4.16e5
- firefly Hh reporter signal, replicate 2: 82550
- Renilla reference signal, replicate 1: 23265
- Renilla reference signal, replicate 2: 6225
- Call: inactive

fid (fire dancer) [DRSC16464]
- firefly Hh reporter signal, replicate 1: 5.04e5
- firefly Hh reporter signal, replicate 2: 1.10e5
- Renilla reference signal, replicate 1: 27378
- Renilla reference signal, replicate 2: 10123
- Call: inactive

par-6 [DRSC20359]
- firefly Hh reporter signal, replicate 1: 1.12e5
- firefly Hh reporter signal, replicate 2: 99564
- Renilla reference signal, replicate 1: 2568
- Renilla reference signal, replicate 2: 2103
- Call: inactive

exd (extradenticle) [DRSC20330]
- firefly Hh reporter signal, replicate 1: 63309
- firefly Hh reporter signal, replicate 2: 1.55e5
- Renilla reference signal, replicate 1: 1817
- Renilla reference signal, replicate 2: 6758
- Call: inactive

CG9130 + CG9133 [DRSC08624]
- firefly Hh reporter signal, replicate 1: 1.28e5
- firefly Hh reporter signal, replicate 2: 7.66e5
- firefly Hh reporter signal, replicate 3: 64801
- Renilla reference signal, replicate 1: 4386
- Renilla reference signal, replicate 2: 47285
- Call: inactive

CG9130 + CG9133 [DRSC08625]
- firefly Hh reporter signal, replicate 1: 1.28e5
- firefly Hh reporter signal, replicate 2: 1.20e5
- Renilla reference signal, replicate 1: 5767
- Renilla reference signal, replicate 2: 5040
- Call: inactive

SelG (Selenoprotein G) [DRSC19808]
- firefly Hh reporter signal, replicate 1: 1.68e5
- firefly Hh reporter signal, replicate 2: 95301
- Renilla reference signal, replicate 1: 3783
- Renilla reference signal, replicate 2: 2240
- Call: inactive

betaTub60D (beta-Tubulin at 60D) [DRSC04673]
- firefly Hh reporter signal, replicate 1: 1.06e5
- firefly Hh reporter signal, replicate 2: 70066
- Renilla reference signal, replicate 1: 2647
- Renilla reference signal, replicate 2: 6374
- Call: inactive

CaBP1 (calcium-binding protein 1) [DRSC01984]
- firefly Hh reporter signal, replicate 1: 61610
- firefly Hh reporter signal, replicate 2: 63152
- Renilla reference signal, replicate 1: 2873
- Renilla reference signal, replicate 2: 2925
- Call: inactive

ens (ensconsin) [DRSC08454]
- firefly Hh reporter signal, replicate 1: 1.74e5
- firefly Hh reporter signal, replicate 2: 99683
- Renilla reference signal, replicate 1: 6306
- Renilla reference signal, replicate 2: 4107
- Call: inactive

lncRNA:CR9284 (long non-coding RNA:CR9284) [DRSC03899]
- firefly Hh reporter signal, replicate 1: 1.14e5
- firefly Hh reporter signal, replicate 2: 2.11e5
- Renilla reference signal, replicate 1: 3018
- Renilla reference signal, replicate 2: 10070
- Call: inactive

lncRNA:CR9284 (long non-coding RNA:CR9284) [DRSC04536]
- firefly Hh reporter signal, replicate 1: 87684
- firefly Hh reporter signal, replicate 2: 65094
- Renilla reference signal, replicate 1: 3213
- Renilla reference signal, replicate 2: 2568
- Call: inactive

CG30274 [DRSC04171]
- firefly Hh reporter signal, replicate 1: 92308
- firefly Hh reporter signal, replicate 2: 55090
- Renilla reference signal, replicate 1: 1932
- Renilla reference signal, replicate 2: 5062
- Call: inactive

Las (Lipoic acid synthase) [DRSC11772]
- firefly Hh reporter signal, replicate 1: 93876
- firefly Hh reporter signal, replicate 2: 87707
- Renilla reference signal, replicate 1: 3683
- Renilla reference signal, replicate 2: 3290
- Call: inactive

CG33702 [DRSC08986]
- firefly Hh reporter signal, replicate 1: 1.07e5
- firefly Hh reporter signal, replicate 2: 2.36e5
- Renilla reference signal, replicate 1: 2921
- Renilla reference signal, replicate 2: 9048
- Call: inactive

CG10465 [DRSC04848]
- firefly Hh reporter signal, replicate 1: 57857
- firefly Hh reporter signal, replicate 2: 46941
- Renilla reference signal, replicate 1: 1638
- Renilla reference signal, replicate 2: 4185
- Call: inactive

Elal (Elastin-like) [DRSC16662]
- firefly Hh reporter signal, replicate 1: 1.65e5
- firefly Hh reporter signal, replicate 2: 72322
- Renilla reference signal, replicate 1: 6929
- Renilla reference signal, replicate 2: 2800
- Call: inactive

DCP2 (Decapping protein 2) [DRSC09399]
- firefly Hh reporter signal, replicate 1: 2.72e5
- Renilla reference signal, replicate 1: 6544
- Call: inactive

DCP2 (Decapping protein 2) [DRSC10597]
- firefly Hh reporter signal, replicate 1: 66534
- firefly Hh reporter signal, replicate 2: 36128
- Renilla reference signal, replicate 1: 3129
- Renilla reference signal, replicate 2: 1699
- Call: inactive

CG43084 [DRSC09998]
- firefly Hh reporter signal, replicate 1: 1.10e5
- Renilla reference signal, replicate 1: 4848
- Renilla reference signal, replicate 2: 3344
- Call: inactive

PRL-1 (PRL-1 phosphatase) [DRSC03393]
- firefly Hh reporter signal, replicate 1: 1.25e5
- firefly Hh reporter signal, replicate 2: 1.06e5
- Renilla reference signal, replicate 1: 3169
- Renilla reference signal, replicate 2: 7330
- Call: inactive

tzn (tenzing norgay) [DRSC11755]
- firefly Hh reporter signal, replicate 1: 1.35e5
- firefly Hh reporter signal, replicate 2: 57958
- Renilla reference signal, replicate 1: 5654
- Renilla reference signal, replicate 2: 2384
- Call: inactive

mRpS25 (mitochondrial ribosomal protein S25) [DRSC19598]
- firefly Hh reporter signal, replicate 1: 1.13e5
- firefly Hh reporter signal, replicate 2: 2.92e5
- Renilla reference signal, replicate 1: 3984
- Renilla reference signal, replicate 2: 12091
- Call: inactive

Vav (Vav guanine nucleotide exchange factor) [DRSC20384]
- firefly Hh reporter signal, replicate 1: 93444
- firefly Hh reporter signal, replicate 2: 2.98e5
- Renilla reference signal, replicate 1: 2628
- Renilla reference signal, replicate 2: 12496
- Call: inactive

CG10035 [DRSC14177]
- firefly Hh reporter signal, replicate 1: 1.14e5
- firefly Hh reporter signal, replicate 2: 1.67e5
- Renilla reference signal, replicate 1: 3240
- Renilla reference signal, replicate 2: 4237
- Call: inactive

CG8620 [DRSC11020]
- firefly Hh reporter signal, replicate 1: 43952
- firefly Hh reporter signal, replicate 2: 49539
- Renilla reference signal, replicate 1: 5411
- Renilla reference signal, replicate 2: 3680
- Call: inactive

In a second layout: 2 of the entries above.
target gene,amplicon,"firefly Hh reporter signal, replicate 1","firefly Hh reporter signal, replicate 2","firefly Hh reporter signal, replicate 3","Renilla reference signal, replicate 1","Renilla reference signal, replicate 2",Call
exd (extradenticle),DRSC20330,63309,1.55e5,,1817,6758,inactive
CG9130 + CG9133,DRSC08624,1.28e5,7.66e5,64801,4386,47285,inactive
